Screening data, single-dose tests

By UniProt entry, the sequences of proteins in these tests, tags left out. Residues count along the entry.
UniProt P9WPC5, whole entry: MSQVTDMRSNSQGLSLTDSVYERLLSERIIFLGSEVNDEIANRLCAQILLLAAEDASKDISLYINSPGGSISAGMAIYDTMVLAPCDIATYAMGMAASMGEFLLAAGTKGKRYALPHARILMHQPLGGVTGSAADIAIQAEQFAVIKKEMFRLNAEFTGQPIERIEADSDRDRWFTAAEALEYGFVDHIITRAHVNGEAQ
UniProt P9WPC3, whole entry partner: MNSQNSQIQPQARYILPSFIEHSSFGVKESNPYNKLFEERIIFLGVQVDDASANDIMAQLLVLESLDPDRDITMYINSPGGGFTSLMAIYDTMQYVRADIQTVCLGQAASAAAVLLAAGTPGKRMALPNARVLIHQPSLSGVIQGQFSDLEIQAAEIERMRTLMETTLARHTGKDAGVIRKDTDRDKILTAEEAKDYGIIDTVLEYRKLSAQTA
UniProt P9WNZ1, whole entry: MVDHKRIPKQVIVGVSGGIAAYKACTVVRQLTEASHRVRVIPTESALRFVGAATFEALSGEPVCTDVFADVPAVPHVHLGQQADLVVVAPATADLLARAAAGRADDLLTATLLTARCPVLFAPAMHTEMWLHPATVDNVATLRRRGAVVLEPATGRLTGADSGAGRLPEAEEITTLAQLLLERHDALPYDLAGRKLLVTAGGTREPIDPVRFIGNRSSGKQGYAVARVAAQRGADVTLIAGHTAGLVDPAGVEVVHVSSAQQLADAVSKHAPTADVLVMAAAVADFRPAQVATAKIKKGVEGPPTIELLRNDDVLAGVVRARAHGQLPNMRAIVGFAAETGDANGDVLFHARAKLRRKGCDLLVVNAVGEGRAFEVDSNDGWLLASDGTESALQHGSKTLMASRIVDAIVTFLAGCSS
UniProt Q8IDJ8, 1-583: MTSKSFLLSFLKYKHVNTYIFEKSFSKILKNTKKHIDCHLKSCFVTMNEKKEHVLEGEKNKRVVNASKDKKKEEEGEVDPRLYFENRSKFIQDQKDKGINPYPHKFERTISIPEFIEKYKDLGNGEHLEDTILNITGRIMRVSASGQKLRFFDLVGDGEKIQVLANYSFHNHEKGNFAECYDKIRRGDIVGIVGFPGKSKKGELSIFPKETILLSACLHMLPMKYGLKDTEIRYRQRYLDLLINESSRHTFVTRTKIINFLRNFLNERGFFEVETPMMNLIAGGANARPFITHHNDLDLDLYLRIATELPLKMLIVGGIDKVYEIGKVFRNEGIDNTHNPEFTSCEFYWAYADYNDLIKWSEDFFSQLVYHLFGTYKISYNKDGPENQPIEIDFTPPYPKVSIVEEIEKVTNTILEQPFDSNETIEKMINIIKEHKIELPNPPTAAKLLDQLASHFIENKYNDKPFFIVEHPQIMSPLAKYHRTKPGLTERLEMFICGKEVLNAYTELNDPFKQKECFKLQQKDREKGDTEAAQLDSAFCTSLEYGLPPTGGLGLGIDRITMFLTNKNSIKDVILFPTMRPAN

The values are deposited in ChEMBL (CHEMBL3988442, “University of Dundee, Small-Polar-MMV Screening Library” (2021)).

ClpP1P2: 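Protease assay of ClpP1P2, read by the AMC dye that it sets free. Target: ClpP1P2, Mycobacterium tuberculosis (UniProt P9WPC5 and UniProt P9WPC3). Concentration: 50 µM. Direction is inferred from only a few compounds that gave an IC50; most scored high, so higher reads as stronger inhibition. Most other retested compounds had strongly negative values. Size under these conditions: about 69,000 compounds, about 10 of them at 50% or above in at least one test.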
CoaBC: 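Enzyme assay of CoaBC with a phosphate dye (Biomol Green) read at 650 nm. Target: Coenzyme A biosynthesis protein CoaBC, Mycobacterium tuberculosis (UniProt P9WNZ1). Tested at 30 µM. Higher reads as stronger inhibition, judged from the few compounds that gave an IC50. Most strong results did not repeat in a second test. Of about 67,000 compounds tested this way, about 40 (0.06%) reached 50% or more in at least one test.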
PfKRS1: 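Enzyme assay of the cytosolic lysyl-tRNA synthetase in 384-well plates, read by luminescence. Target: Lysine-tRNA ligase, Plasmodium falciparum 3D7 (UniProt Q8IDJ8). Compounds at 30 µM. Direction is inferred from only a few compounds that gave an IC50; most scored high, so higher reads as stronger inhibition. About 69,000 compounds were tested under these conditions; 0.071% (about 49) showed 50% or more at least once.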
Leishmania in macrophages: 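Cell assay of Leishmania donovani living inside macrophages; the read-out is not stated. Compounds at 30 µM. Higher reads as stronger inhibition (inferred: compounds with an IC50 in retests scored well above the rest). Size under these conditions: about 69,000 compounds, about 1,000 of them at 50% or above in at least one test.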

Each number is a percent effect as filed. How 0% and 100% were set is not recorded. Most values in the screen are low, and negative values occur. Compounds were drawn at random from those tested, without regard to their results. Two or more numbers in one place are separate tests of the same structure; such repeats can differ widely.

{"compound": "COCCN(Cc1cnn(C)c1)C(=O)C1COc2c(cccc2OC)C1", "stereo": "centres unmarked", "ClpP1P2": -8.388, "CoaBC": -2.703, "PfKRS1": 6.836, "Leishmania in macrophages": 10.17}
{"compound": "CCn1cc(NC(=O)NCC(O)CN2CCCCC2)cn1", "stereo": "centres unmarked", "ClpP1P2": 1.859, "CoaBC": 7.436, "PfKRS1": 7.187, "Leishmania in macrophages": 1.861}
{"compound": "CCNC(=O)NC(C)(C)C(=O)NCc1cccc(N2CC=CC2)c1", "ClpP1P2": -3.736, "CoaBC": 4.989, "PfKRS1": 0.7978, "Leishmania in macrophages": -5.853}
{"compound": "CC(O)CN1CCC(CNCc2ccc(C#N)cc2)CC1", "stereo": "centres unmarked", "ClpP1P2": 3.099, "PfKRS1": 1.576, "Leishmania in macrophages": -9.359}
{"compound": "Cc1ccc(-c2cnnc(N3CCCC3c3nonc3C)n2)o1", "stereo": "centres unmarked", "ClpP1P2": 0.7361, "CoaBC": 9.928, "PfKRS1": 1.045, "Leishmania in macrophages": 17.41}
{"compound": "CCC(C)NC(=O)c1ccc(NC(=O)CCCn2cncn2)c(C)c1", "stereo": "centres unmarked", "ClpP1P2": -6.079, "CoaBC": -1.474, "PfKRS1": 4.448, "Leishmania in macrophages": 15.58}
{"compound": "CC(C)c1ccc(CC(=O)N2CCCC3(CN(C)C(=O)O3)C2)cc1", "stereo": "centres unmarked", "ClpP1P2": -6.356, "CoaBC": 1.635, "PfKRS1": 4.524, "Leishmania in macrophages": 27.08}
{"compound": "COCC(=O)N1CCc2cccc(S(=O)(=O)N3CCN(C)CC3)c2C1", "ClpP1P2": -9.685, "CoaBC": -0.3699, "PfKRS1": 3.742, "Leishmania in macrophages": 17.29}
{"compound": "c1csc(CN2Cc3[nH]nc(COCC4CC4)c3C2)c1", "ClpP1P2": -20.55, "CoaBC": 18.39, "PfKRS1": -1.792}
{"compound": "CN1CCN(C(=O)C2CCN(c3cccnn3)CC2)CC1", "ClpP1P2": -0.03516, "CoaBC": 2.19, "PfKRS1": 1.851, "Leishmania in macrophages": "20.64 and 15.49"}
{"compound": "COc1ccc(Cn2nnnc2SCC2CCCN(C)C2)cc1", "stereo": "centres unmarked", "ClpP1P2": -1.582, "CoaBC": 2.594, "PfKRS1": 0.1451, "Leishmania in macrophages": 8.796}
{"compound": "Cc1nc(C(=O)Nc2cccnc2)c(C(C)C)s1", "ClpP1P2": -6.412, "CoaBC": -9.906, "PfKRS1": 1.523, "Leishmania in macrophages": -1.39}
{"compound": "O=C(O)CC(O)(CC(=O)O)C(=O)O.[H][C@@]12CC[C@@](O)(c3ccc(C)cn3)[C@]1([H])CN(Cc1cccc(Cl)c1Cl)C2", "Leishmania in macrophages": 12.17}
{"compound": "Cc1cc(C[C@@H]2COC[C@@H]2NC(=O)Cn2c(=O)oc3ccccc32)on1", "ClpP1P2": -11.15, "CoaBC": -0.6397, "PfKRS1": 1.681, "Leishmania in macrophages": 15.11}
{"compound": "O=C(C1CCCN(C2CCOCC2)C1)N1CCc2ncccc2C1", "stereo": "centres unmarked", "ClpP1P2": -20.96, "CoaBC": 9.091, "PfKRS1": 7.024, "Leishmania in macrophages": 28.93}
{"compound": "O=C1CC2(CCN(Cc3ccc(-c4ccccc4)s3)C2)C(=O)N1", "stereo": "centres unmarked", "ClpP1P2": -16.67, "CoaBC": 6.418, "PfKRS1": -4.976, "Leishmania in macrophages": 35.42}
{"compound": "C=C(C)CN(Cc1cccc(O)c1)C1CCC(O)CC1", "stereo": "centres unmarked", "ClpP1P2": -8.295, "CoaBC": -2.643, "PfKRS1": 9.748, "Leishmania in macrophages": 24.93}
{"compound": "O=C([C@H]1C[C@H]2OCC[C@H]2N(Cc2ccco2)C1)N1CCCO1", "ClpP1P2": -11.87, "CoaBC": 5.161, "PfKRS1": 5.316}
{"compound": "CCOCC(=O)N1C[C@@H](O)[C@H](N2CCN(c3ccccc3)CC2)C1", "ClpP1P2": -6.687, "CoaBC": 1.726, "PfKRS1": 2.038, "Leishmania in macrophages": -4.234}
{"compound": "NCC1(c2cccc(C(F)(F)F)c2)CCCC1", "ClpP1P2": -8.675, "CoaBC": 9.879, "PfKRS1": -3.712, "Leishmania in macrophages": 1.697}

The last 2 entries again:

| Compound | ClpP1P2 | CoaBC | PfKRS1 | Leishmania in macrophages |
|---|---|---|---|---|
| `CCOCC(=O)N1C[C@@H](O)[C@H](N2CCN(c3ccccc3)CC2)C1` | -6.687 | 1.726 | 2.038 | -4.234 |
| `NCC1(c2cccc(C(F)(F)F)c2)CCCC1` | -8.675 | 9.879 | -3.712 | 1.697 |